Laboratory results: PubChem BioAssay AID2685 (National Center for Advancing Translational Sciences (NCATS), 2010)
Some of the results follow. Shown are side measurements of this screen, not its main read-out; they come without a call. The list favours compounds with an active or inconclusive main result. Words in brackets tell the shape of the fitted curve; partial curves, single points and poor fits give uncertain potencies.

Assay: qHTS Assay for Lipid Storage Modulators in Drosophila S3 Cells;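 for cell number change: cells counted by Cell Tracker Red CMTPX staining in the red channel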
Settings: BODIPY lipid droplet fluorescence, 18-24 h; for cell number change: measured here: cell count max response, cells fed with added oleic acid
Procedure, shortened: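 Drosophila S3 cells got compounds at several concentrations plus oleic acid (400 uM solution). Laser-scanning cytometry with 488 nm excitation read lipid droplets at 500-530 nm and cells at 575-640 nm. Percent activity was relative to 20 uM Triacsin C.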

[1] = measured here: cell number channel AC50, cells fed with added oleic acid
[2] = measured here: lipid fluorescence (Fed channel) AC50, cells fed with added oleic acid

| Compound | cell number change | AC50 [1] | AC50 [2] |
| --- | --- | --- | --- |
| CC(=O)Nc1ccc(NC(=O)CSc2nnc(-c3cc4ccccc4o3)n2C)cc1 | -10.3% | – | – |
| CCn1c(C)nc2cc(NC(=O)Nc3cccc(C(C)=O)c3)ccc21 | -43.3% | 29.1 µM [falling, single point] | 18.4 µM [falling, single point] |
| N#CC(C(=O)c1ccco1)c1ccccn1 (stereo not given) | 48.9% | 29.1 µM [rising, single point] | – |
| COc1ccc(/C=N/n2c(-c3cc(C)[nH]n3)n[nH]c2=S)cc1 | 21.2% | – | 7.31 µM [rising, partial curve, poor fit] |
| O=C(CSc1nnnn1C1CCCCC1)NCc1cccc(C(=O)O)c1 | 17.4% | – | 5.8 µM [rising, single point] |
| C/C(=N/NC(=O)CNC(=O)c1cccs1)c1ccc(Cl)cc1 | -2.99% | – | 2.91 µM [falling, single point] |
| CCc1c(C(=O)N/N=C/c2ccc(OCc3ccc(F)cc3)c(OC)c2)nnn1-c1nonc1N | 43.2% | 29.1 µM [rising, single point] | 29.1 µM [falling, single point] |
| Cc1[nH]n(C(N)=S)c(=O)c1N=Nc1cc(-c2ccc(Br)cc2)[nH]n1 | -33.2% | – | – |
| O=C(c1cc2nc(-c3cccs3)cc(C(F)(F)Cl)n2n1)N1CCCc2ccccc21 | – | 2.31 µM [rising, partial curve] | 0.92 µM [rising, partial curve] |
| COc1ccc(Br)c(C(=O)Nc2cccc(S(=O)(=O)N3CCOCC3)c2)c1 | -6.65% | – | 3.26 µM [falling, full curve, poor fit] |
| Cc1cc(OC(=O)c2cc([N+](=O)[O-])ccc2Cl)c([N+](=O)[O-])c(=O)[nH]1 | 24.9% | – | – |
| O=C(NCc1ccc(Cl)cc1)c1cc(-c2cccs2)on1 | -16.9% | 0.651 µM [falling, full curve, poor fit] | 0.651 µM [falling, partial curve, poor fit] |
| COc1cccc(N2CCN(C(=O)C3CCCN(c4ncnc5c4nc4n5CCCCC4)C3)CC2)c1 (stereo not given) | -13.1% | 0.326 µM [falling, partial curve, poor fit] | – |
| COc1ccc(CN(C(=O)c2ccc(C)cc2)c2cccc(N)c2)cc1 | -11.6% | – | 7.31 µM [rising, partial curve, poor fit] |
| CC(=O)NS(=O)(=O)c1ccc(NC(=O)c2ccc(-n3nc(C)cc3C)cc2)cc1 | -11% | – | – |
| COc1cccc(-n2c(=S)sc3c(=O)n(-c4ccccc4C)c(SCC(=O)O)nc32)c1 | 61.3% | 0.092 µM [rising, full curve] | 5.8 µM [rising, full curve] |
| O=C(O)C1CCCN1c1nc(C(F)(F)F)nc2ccccc12 (stereo not given) | -7.34% | – | – |
| CC(=O)Nc1ccc(NC(=O)CSc2nc3[nH]ncc3c(=O)n2-c2ccccc2)cc1 | 7.08% | – | 29.1 µM [rising, single point] |
| CC(C)NC(=O)NC(=O)COC(=O)c1c2c(nc3ccccc13)CCC2 | 25.6% | – | – |
| CC(C)c1ccc(/C=C/C(=O)N2CCOCC2)cc1 | 47% | 29.1 µM [rising, single point] | – |
| O=C(NC(=S)NC(CO)Cc1ccccc1)c1ccc(F)cc1 (stereo not given) | -23.8% | – | 35.5 µM [falling, single point] |

Record cards, as listed above:
O=C(c1cc2nc(-c3cccs3)cc(C(F)(F)Cl)n2n1)N1CCCc2ccccc21 as listed: AC50 [1]: 2.31 µM [rising, partial curve]; AC50 [2]: 0.92 µM [rising, partial curve]
CC(=O)NS(=O)(=O)c1ccc(NC(=O)c2ccc(-n3nc(C)cc3C)cc2)cc1 as listed: cell number change: -11%
O=C(NCc1ccc(Cl)cc1)c1cc(-c2cccs2)on1 as listed: cell number change: -16.9%; AC50 [1]: 0.651 µM [falling, full curve, poor fit]; AC50 [2]: 0.651 µM [falling, partial curve, poor fit]

Additional results.

| Compound | cell number change | AC50 [1] | AC50 [2] |
| --- | --- | --- | --- |
| COc1ccc2nc(SCC(=O)N3CC(=O)Nc4ccccc43)c(C#N)cc2c1 | -4.01% | 3.26 µM [rising, partial curve] | 1.84 µM [rising, partial curve] |
| O=c1c2ccccc2cnn1Cc1n[nH]c(=S)n1-c1ccc(F)c(Cl)c1 | 14.5% | – | – |
| CC(=O)c1cccc(NC(=O)c2ccc(CN3CCc4ccccc4C3)cc2)c1 | -19.9% | – | 0.651 µM [falling, partial curve, poor fit] |
| CC(=O)c1cccc(S(=O)(=O)N2CCCC(c3nc4c(nnn4Cc4cccc(Cl)c4)c(=O)[nH]3)C2)c1 (stereo not given) | 7.26% | – | – |
| COc1ccc2cc3cc(C(=O)Nc4cc(OC)c(OC)c(OC)c4)oc3nc2c1 | 68.9% | 5.8 µM [rising, full curve] | – |
| CCC(c1c(C)n(C)n(-c2ccccc2)c1=O)c1c(C)n(C)n(-c2ccccc2)c1=O | -14.4% | – | – |
| CCN(C(=O)CSc1nnc(-c2ccccc2)o1)c1c(N)n(Cc2ccccc2)c(=O)[nH]c1=O | -24.2% | – | 29.1 µM [falling, partial curve] |
| CCCCN(CCCC)C(=O)C[n+]1cccc(/C=N/O)c1 | -12.4% | – | 0.00461 µM [falling, full curve] |
| COc1ccc(C(=O)Nc2ccc3c(c2)nc(CCNC(C)=O)n3C)cc1 | 21.5% | – | – |
| NC(=O)CSc1nnc(Cn2c(=O)sc3ccccc32)n1-c1cccc(Cl)c1 | 2.1% | – | 4.61 µM [rising, single point] |
| NS(=O)(=O)c1ccc(CCNC(=S)Nc2ccc(S(N)(=O)=O)cc2)cc1 | -22.9% | – | 0.0517 µM [falling, full curve] |
| CCC(C)(C)NC(=O)C(c1ccc(F)cc1)N(Cc1ccco1)C(=O)c1cnccn1 (stereo not given) | 13.6% | – | 18.4 µM [rising, single point] |
| CCCCCn1c(=O)[nH]c2cc(C(=O)NCCCN3CCCCC3C)ccc2c1=O (stereo not given) | -11.4% | – | 6.51 µM [falling, single point] |
| O=C(Cc1nnc(NC(=O)c2ccccc2)s1)N/N=C/c1ccc(O)cc1 | 5.96% | – | 29.1 µM [rising, single point] |
| CCCCNc1c(-c2ccc(SC(C)CC)cc2)nc2ccccn12 (stereo not given) | – | – | 0.103 µM [falling, full curve, poor fit] |
| O=C1COc2ccc(C(=O)COC(=O)c3sc4ccccc4c3Cl)cc2N1 | -4.16% | – | 2.91 µM [rising, single point] |
| CCN(CC)CCCC(C)NC1=NCCCCC1 (stereo not given) | -0.315% | – | 29.1 µM [falling, single point] |
| Cc1ccc(S(=O)(=O)N2CCCCC2)cc1NC(=O)C1CCC1 | 2.05% | – | 0.082 µM [falling, full curve, poor fit] |
| O=C(NC(=S)Nn1cnnc1)c1ccccc1 | -2.05% | – | 29.1 µM [rising, single point] |
| O=C(CNCCN1CCOCC1)Nc1ccccc1Sc1ccccc1 | 53.8% | 23.1 µM [rising, single point] | – |
| COc1cccc(NC(=O)c2ccc(OC(F)(F)F)cc2)c1 | 4.49% | 6.51 µM [falling, single point] | 3.26 µM [falling, single point] |

| Compound | cell number change | AC50 [1] | AC50 [2] |
| --- | --- | --- | --- |
| Cc1ccc(NS(=O)(=O)c2cc(Br)cnc2N)cc1C | -13.7% | – | – |
| O=C(CSc1nnc(CNC(=O)c2ccco2)o1)Nc1ccccc1C(F)(F)F | 17.8% | – | – |
| COc1cc(/C=N\NC(=O)CN2CCOCC2)ccc1OCC(=O)Nc1ccc(C)c(C)c1 | 20.1% | – | 0.0651 µM [rising, full curve, poor fit] |
| COc1ccc(C2=CC(=O)C[C@H](c3ccc(F)cc3)C2)c(OC)c1 | -14.5% | 1.16 µM [falling, single point] | – |
| Cn1cc(C(=O)c2cccc(Cl)c2)cc1C#N | 5.43% | 0.651 µM [falling, single point] | – |
| C=CCC(CC=C)(NC(=O)c1ccccc1C(=O)O)c1ccccc1 | 5.08% | – | 29.1 µM [rising, partial curve, poor fit] |
| Cc1cc(-c2n[nH]c(=S)o2)c(C)n1-c1ccccc1 | 23.6% | – | 29.1 µM [rising, single point] |
| O=C(NCCN1CCOCC1)c1cc(Cl)ccc1Cl | -10.2% | – | 0.58 µM [falling, single point] |
| COc1ccc(C(=O)N2CCCCC2C(=O)Nc2ccc(-n3nc(C)cc3C)cc2)o1 (stereo not given) | 77.3% | – | 4.61 µM [falling, partial curve] |
| CCOC(=O)C1CCN(C(=O)COc2ccc(S(=O)(=O)NC(C)C)cc2)CC1 | 9.25% | – | 0.411 µM [falling, single point] |
| CC1Cc2ccccc2N1C(=O)Cc1cccs1 (stereo not given) | -2.34% | – | 0.58 µM [falling, single point] |
| COc1ccc(NC2CCCN(C(=O)c3cc(C)nc4cc(F)ccc34)C2)cc1 (stereo not given) | -7.03% | – | 14.6 µM [rising, single point] |
| CCNC(=O)C(=O)NCC(c1ccc2c(c1)OCO2)N1CCOCC1 (stereo not given) | -8.66% | – | – |
| COc1cc(/C=C/C(=O)OCC(=O)c2c(N)n(C)c(=O)n(C)c2=O)ccc1OCC#N | – | 5.8 µM [rising, single point] | – |
| CC(C)c1ccc(N(CC(=O)NC2CCCCC2)C(=O)CCC(=O)Nc2ccccn2)cc1 | 1.67% | – | 0.13 µM [falling, single point] |
| CCOc1ccc2nc(NC(=O)COC)sc2c1 | 20.8% | – | – |
| Cc1sc2ncnc(N3CCC(C(=O)Nc4ccc(Br)cc4Br)CC3)c2c1C | – | – | 20.6 µM [falling, single point] |
| CC(C)c1ccc(N2C(=O)CC(Sc3ncccn3)C2=O)cc1 (stereo not given) | 28.8% | – | 4.61 µM [rising, full curve] |
| CCC(C(=O)NC1CCCCC1)N(C(=O)c1snc(C(N)=O)c1N)c1ccc(OC)cc1OC (stereo not given) | -17.9% | – | 0.164 µM [rising, full curve] |
| O=C(CCCN1C(=O)/C(=C\c2cccs2)SC1=S)Nc1ccc(O)cc1 | 1.28% | – | 5.17 µM [rising, single point] |
| COc1ccc(OCC(=O)NCCNC(=O)c2ccncc2)cc1 | 11.8% | 0.092 µM [rising, full curve, poor fit] | – |
